From PMC6744417, “ALKBH overexpression in head and neck cancer: potential target for novel anticancer therapy” (Scientific Reports, 2019) come the findings set out here.

Common to all, as to type: cell-based, human
What all share (settings): TI = IC50 normal cells (EUFA30)/IC50 cancer cells

The test system of one series is HeLa cells. The series is described as follows: Alamar Blue viability assay, HeLa. How it is done: (§1) Alamar Blue (Invitrogen) viability assay was performed according to manufacturer’s protocol: after 4 h incubation, emission at 590 nm was measured with excitation at 560 nm using a scanning multiwall multimode spectrophotometer (DTX 880, Beckman Coulter). The experiment was carried out at least three times, with three replicates for each inhibitor concentration. […] All the calculations were done using Origin 9.0 software.

In the next series the test system is U87 cells. The series is described as follows: Alamar Blue viability assay, U87. How it is done: Exponentially growing cells at the density of 3 × 10^3 cells/well were seeded onto a 96-well plate, cultured for 18 h followed by the respective treatment of antraquinones or its derivatives in various concentrations or 34 nM RNA interference of ALKBH proteins, and then cultured for a an additional 48 h. Alamar Blue (Invitrogen) viability assay was performed according to manufacturer’s protocol: after 4 h incubation, emission at 590 nm was measured with excitation at 560 nm using a scanning multiwall multimode spectrophotometer (DTX 880, Beckman Coulter). The experiment was carried out at least three times, with three replicates for each inhibitor concentration. After background subtraction, inhibition rates, IC50, values were calculated as the concentration of the component that inhibits cell growth by 50%. All the calculations were done using Origin 9.0 software.
A general note: Alamar Blue is a resazurin reagent that responds to reducing activity.

In a further series the test system is HEK293 cells. Description: Alamar Blue viability assay, HEK293. How it is done: as §1
A further series concerns BICR18 cells. The series is described as follows: Alamar Blue viability assay, BICR18. How it is done:
as §1

As to `Cc1c(Cl)c(O)c2c(c1Cl)C(=O)c1cc(O)cc(O)c1C2=O` [5,7-Dichloroemodin], the “Therapeutic index HeLa” value in the series with HeLa cells is given as 9.6. For the same molecule, the “Therapeutic index U87” value in the series with U87 cells was found to be 0.6. In addition, the “Therapeutic index HEK293” value with HEK293 cells turned out to be 1.2. In the series on BICR18 cells, the “Therapeutic index BICR18” value is 2.6.

Take `Cc1cc2c(c(O)c1Cl)C(=O)c1c(O)cc(O)cc1C2=O` [7-Chloroemodin]: the “Therapeutic index HeLa” value with HeLa cells was found to be 4.8. In addition, in the series on U87 cells, the “Therapeutic index U87” value turned out to be 1.36. In addition, the “Therapeutic index HEK293” value in the series on HEK293 cells is on record as 0.9. For the same molecule, the “Therapeutic index BICR18” value in the series with BICR18 cells is listed as 1.6.

`O=C1c2cccc(O)c2C(=O)c2c(O)cc(CO)cc21` [Aloe-Emodin]: the “Therapeutic index HeLa” value in the series with HeLa cells was determined as 14.6. Besides, the “Therapeutic index BICR18” value in the series with BICR18 cells was 6.6.

Take `Cc1c(C(=O)O)c(O)cc2c1C(=O)c1c(O)c([C@@H]3O[C@H](CO)[C@@H](O)[C@H](O)[C@H]3O)c(O)c(O)c1C2=O` [Carminic Acid, Carminic acid]: the “Therapeutic index HeLa” value in the series with HeLa cells was 0.8. The “Therapeutic index U87” value with U87 cells amounted to 1.2. In addition, in the series on HEK293 cells, the “Therapeutic index HEK293” value is recorded as 1.4. In addition, in the series with BICR18 cells, the “Therapeutic index BICR18” value is recorded as 1.0.

In the case of `Cc1cc(O)c2c(c1)C(=O)c1cc(O)cc(O)c1C2=O` [Emodin], the “Therapeutic index HeLa” value with HeLa cells worked out at 1.25. In addition, the “Therapeutic index U87” value with U87 cells is reported as 3.2. In addition, the “Therapeutic index BICR18” value with BICR18 cells amounted to 1.7.
